# From the supplement of paper PMC8728848
# This is one part of the list.
# B1: NKp30 (Homo sapiens), O14931 (protein)
# chain: LWVSQPPEIRTLEGSSAFLPCSFNASQGRLAIGSVTWFRDEVVPGKEVRNGTPEFRGRLAPLASSRFLHDHQAELHIRDVRGHDASIYVCRVEVLGLGVGTGNGTRLVVEKEHPQLG
# Assays:
# Assay in all cases: glycan array binding signal (z-score within array); higher = stronger binding
# Conditions in all cases: glycan notation: IUPAC condensed, linker removed
# [1] = target: Fuc(a1-3)[Gal(b1-4)]GlcNAc(b1-4)Gal(b1-4)[Fuc(a1-3)]GlcNAc(b1-4)Gal(b1-4)[Fuc(a1-3)]GlcNAc
# Method in brief: (§1)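 The binding signal is a Z-score computed within each array. Data were drawn from 3228 arrays in the Consortium for Functional Glycomics database, restricted to those with a known protein sequence. Scores were averaged over arrays of the same protein sequence at different concentrations or buffers, and over linkers, and negative values can be taken as non-binding.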
# [2] = target: Fuc(a1-3)[Gal(b1-4)]GlcNAc6S
# Method in brief: as §1
# [3] = target: Fuc(a1-3)[Gal3S(b1-4)]Glc
# Method in brief: as §1
# [4] = target: Fuc(a1-3)[Gal3S(b1-4)]Glc6S
# Method in brief: as §1
# [5] = target: Fuc(a1-3)[Gal3S(b1-4)]GlcNAc
# Method in brief: as §1
# [6] = target: Fuc(a1-3)[Gal3S(b1-4)]GlcNAc6S
# Method in brief: as §1
# [7] = target: Fuc(a1-3)[GalNAc(b1-4)]Gal(b1-4)GlcNAc
# Method in brief: as §1
# Fuc(a1-4)GlcNAc = target: Fuc(a1-4)GlcNAc
# Method in brief: as §1
# Fuc(b1-3)GlcNAc = target: Fuc(b1-3)GlcNAc
# Method in brief: as §1
# Gal(a1-2)Gal = target: Gal(a1-2)Gal
# Method in brief: as §1
# Gal(a1-3)Gal = target: Gal(a1-3)Gal
# Method in brief: as §1
# Gal(a1-3)Gal(b1-3)Glc = target: Gal(a1-3)Gal(b1-3)Glc
# Method in brief: as §1
# Gal(a1-3)Gal(b1-3)GlcNAc = target: Gal(a1-3)Gal(b1-3)GlcNAc
# Method in brief: as §1
# Gal(a1-3)Gal(b1-4)GlcNAc = target: Gal(a1-3)Gal(b1-4)GlcNAc
# Method in brief: as §1
# [8] = target: Gal(a1-3)Gal(b1-4)[Fuc(a1-3)]GalNAc
# Method in brief: as §1
# Gal(a1-3)GlcNAc = target: Gal(a1-3)GlcNAc
# Method in brief: as §1
# [9] = target: Gal(a1-3)[Gal(a1-4)]Gal(b1-4)GlcNAc
# Method in brief: as §1
# Gal(a1-4)Gal(b1-4)Gal = target: Gal(a1-4)Gal(b1-4)Gal
# Method in brief: as §1
# Gal(a1-4)Gal(b1-4)GalNAc = target: Gal(a1-4)Gal(b1-4)GalNAc
# Method in brief: as §1
# Gal(a1-4)GlcNAc = target: Gal(a1-4)GlcNAc
# Method in brief: as §1
# Gal(a1-6)Glc = target: Gal(a1-6)Glc
# Method in brief: as §1
# Gal(b1-2)Gal = target: Gal(b1-2)Gal
# Method in brief: as §1
# Gal(b1-3)Gal = target: Gal(b1-3)Gal
# Method in brief: as §1
# Gal(b1-3)GalNAc = target: Gal(b1-3)GalNAc
# Method in brief: as §1
# [10] = target: Gal(b1-3)GalNAc(b1-3)Gal(a1-4)Gal(b1-4)Glc
# Method in brief: as §1
# [11] = target: Gal(b1-3)GalNAc(b1-3)Gal(b1-4)Glc
# Method in brief: as §1
# [12] = target: Gal(b1-3)GalNAc(b1-3)Gal(b1-4)GlcNAc
# Method in brief: as §1
# [13] = target: Gal(b1-3)GalNAc(b1-4)Gal(b1-4)Glc
# Method in brief: as §1
# [14] = target: Gal(b1-3)GalNAc(b1-4)[Neu5Ac(a2-3)]Gal(b1-4)Glc
# Method in brief: as §1
# [15] = target: Gal(b1-3)GlcNAc(b1-3)Gal(b1-3)GlcNAc
# Method in brief: as §1
# [16] = target: Gal(b1-3)[Fuc(a1-4)]GlcNAc
# Method in brief: as §1
# [17] = target: Gal(b1-3)[Fuc(a1-4)]GlcNAc(b1-3)Gal(b1-3)[Fuc(a1-4)]GlcNAc
# Method in brief: as §1
# [18] = target: Gal(b1-3)[Fuc(a1-4)]GlcNAc(b1-3)Gal(b1-4)GlcNAc
# Method in brief: as §1
# [19] = target: Gal(b1-3)[Fuc(a1-4)]GlcNAc(b1-3)Gal(b1-4)[Fuc(a1-3)]GlcNAc
# Method in brief: as §1
# [20] = target: Gal(b1-3)[GlcNAc(b1-6)]GalNAc
# Method in brief: as §1
# [21] = target: Gal(b1-3)[GlcNAc(b1-6)]GlcNAc
# Method in brief: as §1
# [22] = target: Gal(b1-3)[Neu5Ac(a2-6)]GalNAc
# Method in brief: as §1
# [23] = target: Gal(b1-3)[Neu5Ac(a2-6)]GlcNAc
# Method in brief: as §1
binder,measurement,setting,value
B1,glycan array binding signal (z-score),[1],-0.964
same,glycan array binding signal (z-score),[2],1.46
same,glycan array binding signal (z-score),[3],0.441
same,glycan array binding signal (z-score),[4],0.61
same,glycan array binding signal (z-score),[5],0.697
same,glycan array binding signal (z-score),[6],0.561
same,glycan array binding signal (z-score),[7],-0.69
same,glycan array binding signal (z-score),Fuc(a1-4)GlcNAc,-0.16
same,glycan array binding signal (z-score),Fuc(b1-3)GlcNAc,-0.447
same,glycan array binding signal (z-score),Gal(a1-2)Gal,-0.596
same,glycan array binding signal (z-score),Gal(a1-3)Gal,-0.485
same,glycan array binding signal (z-score),Gal(a1-3)Gal(b1-3)Glc,0.252
same,glycan array binding signal (z-score),Gal(a1-3)Gal(b1-3)GlcNAc,-0.623
same,glycan array binding signal (z-score),Gal(a1-3)Gal(b1-4)GlcNAc,-0.883
same,glycan array binding signal (z-score),[8],-1.07
same,glycan array binding signal (z-score),Gal(a1-3)GlcNAc,-0.793
same,glycan array binding signal (z-score),[9],-0.978
same,glycan array binding signal (z-score),Gal(a1-4)Gal(b1-4)Gal,-0.681
same,glycan array binding signal (z-score),Gal(a1-4)Gal(b1-4)GalNAc,-0.788
same,glycan array binding signal (z-score),Gal(a1-4)GlcNAc,-0.176
same,glycan array binding signal (z-score),Gal(a1-6)Glc,-0.099
same,glycan array binding signal (z-score),Gal(b1-2)Gal,-0.007
same,glycan array binding signal (z-score),Gal(b1-3)Gal,-0.378
same,glycan array binding signal (z-score),Gal(b1-3)GalNAc,-0.24
same,glycan array binding signal (z-score),[10],-0.534
same,glycan array binding signal (z-score),[11],-0.43
same,glycan array binding signal (z-score),[12],-0.061
same,glycan array binding signal (z-score),[13],-0.723
same,glycan array binding signal (z-score),[14],-0.251
same,glycan array binding signal (z-score),[15],1.33
same,glycan array binding signal (z-score),[16],-0.678
same,glycan array binding signal (z-score),[17],0.191
same,glycan array binding signal (z-score),[18],-0.628
same,glycan array binding signal (z-score),[19],-0.456
same,glycan array binding signal (z-score),[20],0.027
same,glycan array binding signal (z-score),[21],-0.956
same,glycan array binding signal (z-score),[22],0.513
same,glycan array binding signal (z-score),[23],-0.427

# An excerpt of these results, bar-delimited:
binder | measurement | setting | value
B1 | glycan array binding signal (z-score) | [4] | 0.61
same | glycan array binding signal (z-score) | Gal(a1-2)Gal | -0.596
same | glycan array binding signal (z-score) | [8] | -1.07
same | glycan array binding signal (z-score) | Gal(a1-3)GlcNAc | -0.793
same | glycan array binding signal (z-score) | Gal(a1-4)Gal(b1-4)Gal | -0.681
same | glycan array binding signal (z-score) | Gal(b1-3)Gal | -0.378
same | glycan array binding signal (z-score) | [21] | -0.956
